# Reference: PubChem BioAssay AID445 (National Center for Advancing Translational Sciences (NCATS), 2006)
# This is one part of the list. Shown are side measurements of this screen, not its main read-out; they come without a call. The list favours compounds with an active or inconclusive main result. Words in brackets tell the shape of the fitted curve; partial curves, single points and poor fits give uncertain potencies.
# Assay: IkB Signaling
# Details: ABC-DLBCL IkBa-CBG/CBR dual luciferase ratio (green luciferase fused to IkBa over red control in OCI-Ly3 lymphoma cells), 4 h
# How it was run: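 Curves were fitted separately to fusion (green), unfused (red) and ratio luminescence, then classed by r2, magnitude and activity. Cells: OCI-Ly3, 4 h compound plus doxycycline at 37C; 10 uM MG-132 defined full response.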
# [1] = measured here: control luc red channel unless noted
smiles,measurement,setting,value
COc1ccc(NC(=O)Nc2cccc(-c3cn4cccnc4n3)c2)cc1,AC50,[1],"15.8 µM [falling, partial curve]"
COc1ccc(-c2cc(C(=O)N3CCN(c4ccc(F)cc4)CC3)no2)cc1OC,AC50,[1],"12.6 µM [falling, partial curve]"
COc1ccc(C2CC(=O)c3c([nH]c(C(=O)OC4CCCCCC4)c3C)C2)cc1OC (centres undefined),AC50,[1],"5.01 µM [falling, single point]"
CN(C(=O)c1cccc(C#N)c1)c1nnc(-c2cnccn2)s1,AC50,[1],"15.8 µM [rising, partial curve]"
COc1ccc(-n2nnc(-c3nc(-c4ccccc4C)no3)c2N)cc1Cl,AC50,[1],"0.0398 µM [rising, full curve]"
c1ccc(CC2CCN(c3nnnn3-c3ccccc3)CC2)cc1,AC50,[1],"39.8 µM [falling, single point]"
c1ccc2cc(C3=NCCN3)ncc2c1,AC50,[1],"25.1 µM [falling, partial curve]"
O=c1[nH]c(CSc2ncc(-c3ccc(F)cc3)n2Cc2ccco2)nc2ccccc12,AC50,[1],"15.8 µM [falling, partial curve]"
Cc1cccc(OCC(=O)N(Cc2ccc(C(C)C)cc2)Cc2ccco2)c1C,AC50,[1],"25.1 µM [falling, single point]"
CCN(C(=O)c1nn(-c2ccc(C)cc2)c(=O)c2c1c1ccccc1n2C)c1ccc(F)cc1,AC50,[1],"10 µM [falling, partial curve]"
O=C(NCCc1ccccc1)c1ccc(CSc2nc3ccncc3n2Cc2ccccc2F)cc1,AC50,[1],"20 µM [falling, partial curve]"
Cc1ccc(N2CC(NC(=O)c3ccco3)CC2=O)cc1C (centres undefined),AC50,[1],"6.31 µM [falling, single point]"
CCOC(=O)c1cnc2c(C)cc(Cl)cc2c1NCCc1ccc(OC)c(OC)c1,AC50,[1],"12.6 µM [falling, partial curve]"
CCOC(=O)c1cc(-c2ccc(F)cc2)n(CCC(=O)NCc2ccccc2OC)c1C,AC50,[1],"39.8 µM [falling, single point]"
O=C(c1cccc(F)c1)N1CCC(c2c[nH]c3ccccc23)(c2c[nH]c3ccccc23)CC1,AC50,[1],"12.6 µM [falling, partial curve]"
COc1ccc(C(=O)Nc2nnc(S(=O)(=O)N3CCC(C)CC3)s2)cc1OC,AC50,[1],"20 µM [falling, single point]"
O=C1CC(c2ccco2)CC2=C1C1c3ccccc3C(=O)N1c1ccccc1N2 (centres undefined),AC50,[1],"7.94 µM [falling, full curve, poor fit]"
CCOC(=O)C1=C(CN2CCCCC2)NC(=O)NC1c1ccc(C)cc1 (centres undefined),AC50,[1],"20 µM [falling, single point]"
COc1ccccc1N1CCN(S(=O)(=O)c2ccc3c4c(cccc24)C(=O)N3)CC1,AC50,[1],"31.6 µM [falling, single point]"
O=C(NCC(c1ccc2c(c1)OCO2)N1CCN(c2ccccc2F)CC1)c1ccccc1F (centres undefined),AC50,[1],"0.0631 µM [falling, full curve, poor fit]"
CCOC(=O)c1c(C)oc2nc(C)nc(N3CCN(c4cccc(C(F)(F)F)c4)CC3)c12,AC50,[1],"12.6 µM [falling, partial curve]"
COc1ccc(C2CC(=O)N(CC(=O)Nc3ccc(C(C)=O)cc3)c3ccccc3S2)cc1OC (centres undefined),AC50,[1],"12.6 µM [falling, partial curve]"
COc1ccc(CCC(=O)NC2CC(=O)N(c3ccccc3)C2)cc1 (centres undefined),AC50,[1],"0.0316 µM [rising, full curve, poor fit]"
Cc1ccc2[nH]c(CSc3nnc(NC(=O)COc4ccc(F)cc4)s3)cc(=O)c2c1,AC50,[1],"0.501 µM [falling, full curve]"
COCCn1c(CNc2ccc(F)cc2)nnc1SCC(=O)Nc1ccc(OC)cc1OC,AC50,[1],"25.1 µM [falling, single point]"
CC(C)(C)OC(=O)NCCCCCc1nnc(SCC(=O)Nc2cccc(Cl)c2)o1,AC50,[1],"12.6 µM [falling, partial curve]"
CCOC(=O)C1CCCCN1C(=O)CCc1c(C)nc2ncnn2c1C (centres undefined),AC50,[1],"0.398 µM [falling, full curve]"
COc1cc(Cl)c(C)cc1NC(=O)c1nn(C)c2c1CSc1ccccc1-2,AC50,[1],"25.1 µM [falling, single point]"
O=C(NCc1nc(-c2ccccc2)no1)c1ccco1,AC50,[1],"3.16 µM [rising, full curve]"
O=c1c2ccccc2nc(-c2ccccc2)n1CCCn1ccnc1,AC50,[1],"12.6 µM [rising, partial curve]"
CN(C)c1ccc(NC(=O)CN2CCN(S(=O)(=O)c3cc(Cl)ccc3Cl)CC2)cc1,AC50,[1],"20 µM [falling, partial curve]"
Cc1cc(=O)n2[nH]c(NC(=O)c3cccc(Cl)c3)nc2n1,AC50,[1],"20 µM [falling, partial curve]"
CC1=Nc2cc(C(=O)N3CCCCC3)ccc2Sc2ccc(C)cc21,AC50,[1],"31.6 µM [falling, partial curve]"
Cc1c(C(=O)NCc2ccc(OC(C)C)cc2)sc2ncnc(N(C)C3CCCCC3)c12,AC50,[1],"25.1 µM [falling, partial curve]"
O=S(=O)(c1ccc(Oc2ccc(Br)cc2)cc1)N1CCOCC1,AC50,[1],"6.31 µM [falling, partial curve]"
O=C(CSc1nccn1Cc1ccc(Cl)cc1)Nc1ccc2c(c1)OCO2,AC50,[1],"25.1 µM [falling, single point]"
O=C(Nc1ccc(Cl)c(C(F)(F)F)c1)C(Cc1ccccc1)NS(=O)(=O)c1cccc2nsnc12 (centres undefined),AC50,[1],"2.51 µM [falling, full curve]"
Cc1cc(C)cc(OCCSc2nc(-c3cccs3)nc3cc(=O)[nH]n23)c1,AC50,[1],"31.6 µM [falling, partial curve]"
CCC(Sc1nc2ncccc2o1)C(=O)Nc1cccc(C)c1 (centres undefined),AC50,[1],"3.98 µM [falling, partial curve]"
CCc1ccc(C2c3c(-c4ccccc4)n[nH]c3C(=O)N2c2ccc(C(=O)O)cc2)cc1 (centres undefined),AC50,[1],"7.94 µM [falling, partial curve]"
O=C(CN1N=C(c2ccccc2)CCC1=O)NCc1ccc(F)cc1Cl,AC50,[1],"25.1 µM [falling, partial curve]"
O=S(=O)(NCCc1csc2nc(-c3ccc(Cl)cc3)nn12)c1ccc2c(c1)OCCO2,AC50,[1],"39.8 µM [falling, single point]"
CC(C)c1ccc(NC(=O)CN2C(=O)COc3ccc(S(=O)(=O)N4CCOCC4)cc32)cc1,AC50,[1],"5.01 µM [rising, full curve]"
CCSC1=C(C#N)C(c2ccc(Cl)cc2)C2=C(CCCC2=O)N1 (centres undefined),AC50,[1],"39.8 µM [falling, single point]"
COCCn1c(N)c(C(=O)NCc2cccs2)c2nc3ccccc3nc21,AC50,[1],"10 µM [falling, partial curve]"
O=C(Nc1cccc(Cl)c1)c1cc(S(=O)(=O)N2CCC3(CC2)OCCO3)ccc1F,AC50,[1],"39.8 µM [falling, single point]"
CCN(CCCNC(=O)Cn1ncc2c3ccccc3n(C)c2c1=O)c1cccc(C)c1,AC50,[1],"39.8 µM [falling, single point]"
Cc1ccccc1C(=O)n1nc(-c2cccnc2)nc1NCc1ccc(F)cc1,AC50,[1],"20 µM [falling, partial curve]"
COc1ccc2cnn(CCOc3ccccc3)c(=O)c2c1OC,AC50,[1],"12.6 µM [falling, partial curve]"
CCOC(=O)c1ccccc1NC(=O)COc1cc(=O)n(CC)c2ccccc12,AC50,[1],"3.16 µM [falling, full curve]"
COc1ccc(Cl)cc1NC(=O)c1sc2nc3c(cc2c1N)CN(C)CC3,AC50,[1],"25.1 µM [falling, partial curve]"
O=C(CCC1N=C2c3ccccc3N=C(SCc3ccc(Cl)cc3)N2C1=O)NC1CCCCC1 (centres undefined),AC50,[1],"20 µM [falling, partial curve]"
O=C(COc1ccc2ccccc2c1Br)N1CCN(c2ccccn2)CC1,AC50,[1],"25.1 µM [falling, single point]"
Cc1ccc(-n2ncc3c(N4CCCCC4)ncnc32)cc1,AC50,[1],"31.6 µM [falling, partial curve]"
CC(C)C[C@H]1C(=O)N2CCC[C@@H]2[C@]2(O)O[C@](NC(=O)[C@H]3C=C4c5cccc6[nH]c(Br)c(c56)C[C@H]4N(C)C3)(C(C)C)C(=O)N12,AC50,measured here: IkB-luc green channel,"31.6 µM [falling, partial curve, poor fit]"
same,AC50,measured here: control luc red channel,"15.8 µM [falling, partial curve]"
O=C(CN1CCN(C2CCCCC2)C(=O)C1=O)Nc1ccc(Cl)cc1,AC50,[1],"12.6 µM [falling, partial curve]"
O=C1C=C(NCCc2cc(Br)c(O)c(Br)c2)C(=O)c2ncccc21,AC50,[1],"3.16 µM [falling, partial curve]"
Cc1ccc(C(=O)NC2CC3CCCC(C2)N3C(=O)NC2CCCCC2)cc1 (centres undefined),AC50,[1],"31.6 µM [falling, partial curve]"
Cc1noc(C)c1CSc1nc2ccccc2c(=O)n1-c1ccc(F)cc1F,AC50,[1],"39.8 µM [falling, single point]"
Cc1ccc(C(=O)c2sc(Nc3ccc(F)cc3)nc2N)c(C)c1,AC50,[1],"3.16 µM [falling, full curve]"
Cc1cc(C(=O)Nc2nnc(-c3ccccc3)s2)no1,AC50,[1],"0.501 µM [falling, full curve]"
COc1ccc(-c2nc(CNC(=O)NC3CCCCC3)c(C)o2)c(OC)c1,AC50,[1],"15.8 µM [falling, partial curve]"
CCOC(=O)c1cc2c(=O)n3ccccc3nc2n(Cc2ccco2)c1=NC(=O)c1ccc(F)cc1,AC50,[1],"12.6 µM [falling, partial curve]"

# Given as tab-separated lines: part of the list above.
smiles	measurement	setting	value
O=C(CSc1nccn1Cc1ccc(Cl)cc1)Nc1ccc2c(c1)OCO2	AC50	[1]	25.1 µM [falling, single point]
O=C(Nc1ccc(Cl)c(C(F)(F)F)c1)C(Cc1ccccc1)NS(=O)(=O)c1cccc2nsnc12 (centres undefined)	AC50	[1]	2.51 µM [falling, full curve]
Cc1cc(C)cc(OCCSc2nc(-c3cccs3)nc3cc(=O)[nH]n23)c1	AC50	[1]	31.6 µM [falling, partial curve]
CCC(Sc1nc2ncccc2o1)C(=O)Nc1cccc(C)c1 (centres undefined)	AC50	[1]	3.98 µM [falling, partial curve]
